By UniProt entry, the sequences of proteins in these tests, tags left out. Where a name states a change or a piece, a line headed by the entry shows the natural chain unless it says otherwise.
UniProt Q29615: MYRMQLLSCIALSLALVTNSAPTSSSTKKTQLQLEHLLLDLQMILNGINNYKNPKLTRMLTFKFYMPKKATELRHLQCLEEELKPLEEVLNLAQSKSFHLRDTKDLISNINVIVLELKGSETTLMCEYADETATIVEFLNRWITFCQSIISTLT

In patent US20030190687A1 (UAB RESEARCH FOUNDATION, published 2003):

Target: cynomolgus monkey DR5 on activated lymphocytes (cynomolgus monkey) (UniProt Q29615)
Assay: flow cytometry on activated cynomolgus monkey lymphocytes, 0.5-10 µg/ml TRA-8

binding: binds
B1: anti-human DR5 monoclonal antibody TRA-8 (mouse-mouse hybridoma TRA-8, ATCC PTA-1428) (antibody, mouse IgG1, kappa, V domains shown)
VH: EVMLVESGGGLVKPGGSLKLSCAASGFTFSSYVMSWVRQTPEKRLEWVATISSGGSYTYYPDSVKGRFTISRDNAKNTLYLQMSSLRSEDTAMYYCARRGDSMITTDYWGQGTTLTVSS
VL: DIVMTQSHKFMSTSVGDRVSITCKASQDVGTAVAWYQQKPGQSPKLLIYWASTRHTGVPDRFTGSGSGTDFTLTISNVQSEDLADYFCQQYSSYRTFGGGTKLEIKR
notes: also called monoclonal anti-DR5 antibody (clone: TRA-8); TRA-8 antibody

Results are given in words; binding and its absence hold for the method and conditions named. Binding can be weak; no strength is given.
